# Data published in PubChem BioAssay AID504834 (National Center for Advancing Translational Sciences (NCATS), 2011).
# The whole screen tested about 320,000 compounds, of which about 22,000 (6.9%) were called active. The inconclusive results got no clear call from the source; some entries with a clear call stand among them for comparison. Calls follow the shape of the dose curve; as a rule, active = well fitted inhibition curve with a large enough effect; inconclusive = small, poorly fitted or top-dose-only effect, or another doubt; inactive = no such curve, though single readings can be large or run the other way. Potencies beside an inconclusive call are fits to weak or partial responses and may not hold up.
# Assay: Primary qHTS for delayed death inhibitors of the malarial parasite plastid, 96 hour incubation
# Details: P. falciparum luciferase reporter growth; series mostly up to 28.7 µM; activity change, negative = inhibition: at the top concentration
# Summary of the method: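 Delayed-death screen, second-generation endpoint: infected erythrocytes, 2% hematocrit, 0.05% parasitemia final; 96 hours at 37 C, 5% CO2; luciferase detection reagent; luminescence decrease equals reduced growth.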
# % is scaled to controls: 0 for no effect and ±100 for the full control effect; potency is read from the fitted curve at half-maximal effect.
SMILES,"activity change, negative = inhibition",Potency
C(=N\N=C\c1ccncc1)/c1ccncc1,inactive: 0%,
Cc1ccc2c(Br)cc(Br)c(O)c2n1,,active: 6.75 µM
CCOc1cc(-c2nccc3cc(OC)c(OC)cc23)cc(OCC)c1OCC,,active: 10.7 µM
CC1(C(=O)NCCOc2ccccc2Cl)CC1(Cl)Cl (centres undefined),,"inconclusive: 13.1 µM [inhibitor, single point]"
Cc1ccc(OCc2n[nH]c(=S)n2N)cc1C,,"inconclusive: 10.4 µM [inhibitor, single point]"
N#CC1=C(N)Oc2cc3ccccc3cc2C1c1cccnc1 (centres undefined),,"inconclusive: 0.465 µM [inhibitor, full curve]"
Cc1cc(C)n2nc(SCC(=O)N(C)Cc3ccccc3)nc2n1,,"inconclusive: 10.4 µM [inhibitor, single point]"
CC(=O)/C=C\c1cn(-c2ncc(C(F)(F)F)cc2Cl)c2ccccc12,,active: 10.4 µM
CC(C)(C)n1nnnc1C(c1ccncc1)N1CCCCCC1 (centres undefined),,"inconclusive: 4.65 µM [inhibitor, single point]"
Cc1cc(S(=O)(=O)N2CCCC2)ccc1OCC(=O)Nc1ccccc1,inactive: -24.4%,
N/C(=N\OC(=O)C1CC1)c1ccc([N+](=O)[O-])s1,,active: 6.57 µM
COc1cccc(COC(=O)CCNC(=O)c2ccc(Cl)cc2)c1OC,inactive: 5.48%,
Cc1ccc(N2C(=O)NC(=O)C(CCc3ccccn3)(Cc3cccc(Cl)c3Cl)C2=O)cc1 (centres undefined),,active: 2.33 µM
Cc1ccc(C(=O)NCCc2c[nH]c3ccccc23)s1,inactive: 111%,
Cc1ccnc(NS(=O)(=O)c2ccc(-n3cccn3)cc2)c1,,active: 10.4 µM
COc1ccc(S(=O)(=O)CCC(=O)Nc2ccc(OC)cc2OC)cc1,,"inconclusive: 0.0828 µM [inhibitor, full curve, poor fit]"
Cc1ccc(CNC(=O)CSc2nnc(CNC(=O)c3ccccc3)o2)cc1,inactive: -2.68%,
O=S(=O)(Nc1ccc(N2CCCCC2)cc1)c1ccccc1F,,"inconclusive: 5.22 µM [inhibitor, single point]"
Cc1c(C(=O)NCc2ccccc2CN2CCCC2)oc2c(F)cccc12,,"inconclusive: 18.5 µM [inhibitor, single point]"
COc1ccc(NC(=O)CCCn2cnc3ccccc3c2=O)cc1,inactive: 0%,
CCCn1c(CC)nc([N+](=O)[O-])c1S(=O)(=O)c1ccccc1,,"inconclusive: 10.4 µM [inhibitor, single point]"
NNC(=O)c1ccc(-c2ccccc2F)cc1,,"inconclusive: 2.62 µM [inhibitor, partial curve, poor fit]"
N#C/C(=C\c1ccco1)c1nc2ccccc2s1,inactive: 0%,
CC(C)c1nc(SCC(=O)c2ccc(F)cc2)c2ccccc2n1,inactive: -33.8%,
COc1ccc(N2CCN(CCCNS(=O)(=O)c3c(C)noc3/C=C/N(C)C)CC2)cc1,,"inconclusive: 16.5 µM [inhibitor, single point]"

SMILES,"activity change, negative = inhibition",Potency
CN(CC(=O)Nc1cc(S(=O)(=O)N2CCCCCC2)ccc1Cl)Cc1ccc2c(c1)OCO2,,"inconclusive: 18.5 µM [inhibitor, single point]"
CC1CC(C)CN(S(=O)(=O)c2ccc3c(c2)CC(C)N3C(=O)C2CC2)C1 (centres undefined),,"inconclusive: 4.15 µM [inhibitor, partial curve]"
CC(C)N(C)Cc1nnnn1CC(=O)NCc1cc(F)cc(C(F)(F)F)c1,,"inconclusive: 18.5 µM [inhibitor, single point]"
CCCNC(=O)Cn1nc(C(F)(F)F)c2c1CCC2,,"inconclusive: 18.5 µM [inhibitor, single point]"
Cc1ccc(CCNC(=O)C2CC(c3cccc(F)c3)=NO2)cc1 (centres undefined),,"inconclusive: 5.86 µM [inhibitor, partial curve, poor fit]"
COCCCN1Cc2cccc(C(=O)O)c2C1=O,,active: 8.28 µM
CCOC(=O)C1=C(C)N(C)C(=O)NC1c1c(C)nn(-c2ccc(C)cc2)c1Cl (centres undefined),,"inconclusive: 0.738 µM [inhibitor, partial curve, poor fit]"
Cc1ccc(NC(=O)N(Cc2cccnc2)Cc2ccco2)cc1C,,"inconclusive: 5.86 µM [inhibitor, partial curve, poor fit]"
O=C(CSc1nnc(NC(=O)c2ccccc2Cl)s1)Nc1ccc2c(c1)oc1ccccc12,,"inconclusive: 1.04 µM [inhibitor, partial curve, poor fit]"
CCOC(=O)c1ccc(Nc2nnc(C)c3ccccc23)cc1,inactive: -1.18%,
CC(C)CN(C(=O)c1cccc(S(=O)(=O)N2CCN(c3ccc(F)cc3)CC2)c1)C1CCS(=O)(=O)C1 (centres undefined),inactive: -22.7%,
CCC(C)NC(=O)CCn1c(-c2ccccc2)cc(C(C)=O)c1C (centres undefined),,"inconclusive: 11.7 µM [inhibitor, single point]"
CN1C(=O)S/C(=C\c2ccc(-n3cncn3)cc2)C1=O,inactive: -15.6%,
COc1ccc(CCC(=O)NCCS(=O)(=O)N2CCN(c3ccccc3F)CC2)cc1,,"inconclusive: 18.5 µM [inhibitor, single point]"
NC(=O)Cn1cc(/C=N/NC(=O)c2ccc(Cn3cc(Cl)cn3)o2)c(-c2ccccc2)n1,inactive: -17.9%,
COc1cc(-c2noc(C3CCCN(C(=O)c4ccccc4)C3)n2)cc(OC)c1OC (centres undefined),,"inconclusive: 4.15 µM [inhibitor, single point]"
CC1Sc2ccc(C(=O)NCc3ccccn3)cc2NC1=O (centres undefined),,"inconclusive: 18.5 µM [inhibitor, single point]"
C=CCNC(=S)NS(=O)(=O)c1cccs1,inactive: 2.95%,
CN1CCN(c2ccc(NC(=O)c3ccc(Br)o3)cc2)CC1,,"inconclusive: 10.4 µM [inhibitor, single point]"
Cc1cc(Br)ccc1NC(=O)CCN1C(=O)c2ccncc2C1=O,,"inconclusive: 0.522 µM [inhibitor, full curve, poor fit]"
N#Cc1ccc(-c2ccc(C3Nc4ccccc4C(=O)N3O)o2)cc1 (centres undefined),,"inconclusive: 10.4 µM [inhibitor, single point]"
Cc1cccc(NC(=O)[C@@H]2CCCN2C(=O)OC(C)(C)C)c1,inactive: 16.6%,
O=[N+]([O-])c1ccc(S(=O)(=O)NCC(c2cccnc2)N2CCc3ccccc32)cc1 (centres undefined),,active: 14.7 µM
Cc1nc2sc(C(c3ccccc3)N3CCN(c4ccccc4F)CC3)c(O)n2n1 (centres undefined),,"inconclusive: 18.5 µM [inhibitor, single point]"
Cc1cccc(N(CC(=O)NCC2CCCO2)C(=O)CNS(=O)(=O)c2ccc(Cl)cc2)c1 (centres undefined),,"inconclusive: 1.85 µM [inhibitor, partial curve]"

# 5 entries picked at random from the list so far, as already listed:
SMILES,"activity change, negative = inhibition",Potency
CCC(C)NC(=O)CCn1c(-c2ccccc2)cc(C(C)=O)c1C (centres undefined),,"inconclusive: 11.7 µM [inhibitor, single point]"
COc1ccc(NC(=O)CCCn2cnc3ccccc3c2=O)cc1,inactive: 0%,
CCCNC(=O)Cn1nc(C(F)(F)F)c2c1CCC2,,"inconclusive: 18.5 µM [inhibitor, single point]"
COc1ccc(S(=O)(=O)CCC(=O)Nc2ccc(OC)cc2OC)cc1,,"inconclusive: 0.0828 µM [inhibitor, full curve, poor fit]"
Cc1cccc(N(CC(=O)NCC2CCCO2)C(=O)CNS(=O)(=O)c2ccc(Cl)cc2)c1 (centres undefined),,"inconclusive: 1.85 µM [inhibitor, partial curve]"

# Further structures follow.

SMILES,"activity change, negative = inhibition",Potency
CCN=C1Sc2nc3ccc(OCC)cc3cc2CN1CCOC,,"inconclusive: 0.262 µM [inhibitor, full curve]"
CC1CN(CCCCSc2ccc(Cl)cc2)CC(C)O1 (centres undefined),inactive: 3.01%,
O=C(O)COc1ccc(/C=N/NC(=O)c2cn(-c3ccccc3)nc2-c2ccccc2)cc1,,"inconclusive: 13.1 µM [inhibitor, single point]"
COc1ccc(N2CC(C(=O)Nc3nnc(SCCC4OCCO4)s3)CC2=O)cc1 (centres undefined),,active: 13.1 µM
O=C1NN(c2ccccc2)C(=O)C2C3C=CC(C4CC34)C12 (centres undefined),inactive: 76.9%,
CCOC(=O)C1CCN(C(=O)Nc2ccc3c(c2)nc(C)n3C)CC1,,"inconclusive: 18.5 µM [inhibitor, single point]"
COc1cccc(-n2nc(C(=O)O)c3ccccc3c2=O)c1,,"inconclusive: 10.4 µM [inhibitor, single point]"
CNc1ccc(S(=O)(=O)NCC(=O)NCCCc2ccccc2)cc1[N+](=O)[O-],,"inconclusive: 6.57 µM [inhibitor, partial curve, poor fit]"
C=CCSc1nc2nc(C)cc(C)n2n1,,active: 0.329 µM
COc1ccc(/C=N/NC(=O)c2cc(-c3ccccc3)nc3ccccc23)c(C(=O)O)c1OC,inactive: 0%,
Cc1cccc(Oc2nc(-c3ccccn3)nc3ccccc23)c1,,active: 2.62 µM
O=C1NCCc2c1[nH]c1ccc([N+](=O)[O-])cc21,inactive: 0.875%,
C[C@@H]1CC[C@H]2C(=O)N3[C@@H](CC[C@@H](C)[C@@H]3c3ccc(Br)cc3)C(=O)N2[C@H]1c1ccc(Br)cc1,,"inconclusive: 14.7 µM [inhibitor, single point]"
O=C1CCCN1CCC1CCN(C2CC(=O)N(c3ccc(F)cc3)C2=O)CC1 (centres undefined),,"inconclusive: 18.5 µM [inhibitor, single point]"
O=C(NC1CCCC1)C(c1ccc(Cl)cc1)N1CCc2ccccc21 (centres undefined),,active: 5.86 µM
CCOC(=O)Cc1csc(NC(=O)C(C)(C)CC)n1,,"inconclusive: 0.0208 µM [inhibitor, full curve, poor fit]"
CCCCCNC(=O)c1cn(CC)c2cc(N3CCN(C)CC3)c(F)cc2c1=O,,active: 14.7 µM
CCN(CC)C(=O)c1ccc(CS(=O)(=O)c2ccc(Br)cc2)cc1,,"inconclusive: 18.5 µM [inhibitor, single point]"
O=C(N1CCN(Cc2ccccc2)CC1)C(Cl)(Cl)Cl,inactive: 44%,
COc1ccccc1N1CCN(S(=O)(=O)c2cccc3nsnc23)CC1,,"inconclusive: 18.5 µM [inhibitor, single point]"
C=CCSC1=N/C(=C\c2cc(OCC)c(OC(C)=O)c([N+](=O)[O-])c2)C(=O)S1,,"inconclusive: 18.5 µM [inhibitor, single point]"
O=C(c1cc(Br)ccc1OC(F)F)N1CCN2CCCC2C1 (centres undefined),,"inconclusive: 10.4 µM [inhibitor, partial curve]"
O=C(c1ccc(N2CCCCC2)c([N+](=O)[O-])c1)N(c1ccccn1)c1ccccn1,inactive: -0.709%,
O=C(Nc1ccccc1Cl)Nc1cccc2cccnc12,inactive: 3.34%,
